Publication PMC13436964
No constants are given. Whether binding was seen depends on the method and setting. In cells and extracts the contact can be indirect. Some results given as binding are weak or reduced against the parent protein; the word gives no strength. For some of these results: Where a sequence is shown, tags or fusion partners need not be part of it.

By UniProt entry, the sequences of proteins in these tests, tags left out.
UniProt Q3UHZ5: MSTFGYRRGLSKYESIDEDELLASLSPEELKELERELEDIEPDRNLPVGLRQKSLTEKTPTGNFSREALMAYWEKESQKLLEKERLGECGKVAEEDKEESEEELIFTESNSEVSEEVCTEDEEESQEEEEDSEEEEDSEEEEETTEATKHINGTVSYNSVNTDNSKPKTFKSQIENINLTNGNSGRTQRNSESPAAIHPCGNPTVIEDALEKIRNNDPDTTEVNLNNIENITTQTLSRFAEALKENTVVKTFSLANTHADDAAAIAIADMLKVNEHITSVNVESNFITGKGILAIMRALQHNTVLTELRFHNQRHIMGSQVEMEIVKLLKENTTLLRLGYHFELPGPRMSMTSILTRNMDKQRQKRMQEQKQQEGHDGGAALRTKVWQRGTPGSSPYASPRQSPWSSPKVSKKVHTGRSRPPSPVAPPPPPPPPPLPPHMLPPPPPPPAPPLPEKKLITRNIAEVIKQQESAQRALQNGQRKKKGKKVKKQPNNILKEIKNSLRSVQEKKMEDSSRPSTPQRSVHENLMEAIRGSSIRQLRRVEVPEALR

Key:
SIRT1-GFP = biological target: T1, SIRT1-GFP (UniProt Q923E4); experiment: co-IP; GFP-Trap agarose on lysates of HEK293T cells expressing LMOD1-BirA* or LMOD2-BirA* (tetracycline) and transfected with SIRT1-GFP or GFP; 1 hr at 4 °C; eluates blotted with anti-BirA and anti-GFP
T1 sequence: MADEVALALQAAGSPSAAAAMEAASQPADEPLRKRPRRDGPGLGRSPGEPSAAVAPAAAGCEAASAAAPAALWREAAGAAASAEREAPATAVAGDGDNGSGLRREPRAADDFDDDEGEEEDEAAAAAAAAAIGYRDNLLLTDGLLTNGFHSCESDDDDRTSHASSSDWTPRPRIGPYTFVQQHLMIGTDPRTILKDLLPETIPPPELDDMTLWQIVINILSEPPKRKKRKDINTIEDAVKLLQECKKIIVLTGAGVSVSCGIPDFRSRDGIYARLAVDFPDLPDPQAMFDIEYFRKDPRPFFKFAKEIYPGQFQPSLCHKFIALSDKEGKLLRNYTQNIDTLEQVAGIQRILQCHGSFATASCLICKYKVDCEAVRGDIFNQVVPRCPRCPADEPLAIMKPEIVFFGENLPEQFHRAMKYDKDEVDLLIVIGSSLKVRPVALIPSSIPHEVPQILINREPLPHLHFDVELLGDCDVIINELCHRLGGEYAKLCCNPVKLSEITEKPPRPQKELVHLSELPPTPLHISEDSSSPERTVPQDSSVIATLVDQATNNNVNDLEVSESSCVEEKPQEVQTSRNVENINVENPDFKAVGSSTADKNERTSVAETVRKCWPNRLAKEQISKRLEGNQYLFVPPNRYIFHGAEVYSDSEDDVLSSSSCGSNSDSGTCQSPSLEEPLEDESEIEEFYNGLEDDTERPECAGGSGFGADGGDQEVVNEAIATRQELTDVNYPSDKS

[1] = biological target: T2, sirtuin 1 (SIRT1), endogenous in mouse primary myoblasts (mouse (endogenous in primary myoblasts)) (UniProt Q923E4); experiment: proximity ligation; Duolink PLA with anti-Sirt1 and anti-Lmod1 antibodies in fixed mouse primary myoblasts during proliferation
T2 sequence: T1 sequence

[2] = biological target: T2, sirtuin 1 (SIRT1), endogenous in mouse primary myoblasts (mouse (endogenous in primary myoblasts)); experiment: proximity ligation; Duolink PLA with anti-Sirt1 and anti-Lmod1 antibodies in fixed mouse primary myoblasts after 1 day of differentiation

**Q.** “LMOD2-BirA*-FLAG (from UniProt Q3UHZ5 1-550)” was tested. Which binding (SIRT1-GFP) did it give?
**A.** binds

B1: leiomodin 1 (LMOD1), endogenous in mouse primary myoblasts (protein, UniProt Q8BVA4 1-595)
chain: MSKVAKYRRQVSEDPDIDSLLSTLSPEEMEELEKELDVVDPDGSIPVGLRQRNQTDKQPSGSFNREAMLNFCEKESKKLIQREMSVDESKQVGRKTDAKNGEEKDSDASRKAPGPRQDSDLGKEPKKGVLKKSFSRDREEADGRGGEKPKEEKVIRGIDKGRVRAAVDRKESGKDGREERAAAARKEEEKTGSVKNAGLSRDKDKKKEEVKEPSKKEEVKLTAESRNTVGRREDGRLKESSKENKKPEDEGIGSGGRDWRKEDEKVKKEENQPDKEVREESKTKAPEKQAPSCPNKPSDGQARAEEEAAPSIFDEPLEKVKNNDPEMTEVNVNNSDCITNEILVRFTEALEFNTVVKVFALANTRADDHVAFAIAIMLKANKTITSLNLDSNHITGKGILAIFRALLQNNTLTELRFHNQRHICGVKTEMEIAKLLKENTTLLKLGYHFELAGPRMTVTNLLSRNMDKQRQKRLQEQKQAQEASGEKKDRLEVPKVGALAKGSPKPSPQPSPKPAPKNSPKKAGVPAAPPPPPPPLAPPLIMENLKNSLSPATQRKMGDKVLPAQEKNSRDQLLAAIRSSNLKQLKKVEVPKLLQ
**Q.** Which results are given for B1?
**A.** binding [1]: binds weakly; binding [2]: binds

B2: LMOD1-BirA*-FLAG (protein, UniProt Q8BVA4 1-595)
chain: B1 chain
**Q.** For B2, which binding (SIRT1-GFP) is on record?
**A.** binds
